Data as given in publication PMC9502983.

Biological target: HA-tagged N-terminal CBP (aa1–494) (silkworm)
Assay: co-IP; BmE cells cotransfected with HA-CBP (aa1-494) and FLAG-EcR, treated with 2.5 uM 20E or DMSO for 12 h; lysis buffer 25 mM Tris pH 8, 27.5 mM NaCl, 20 mM KCl, 0.5% NP40, with or without 20E; IP with anti-HA overnight at 4 °C, protein A/G Dynabeads; Western blot with anti-FLAG, anti-HA …

B1: FLAG-tagged EcR (receptor, UniProt P49881 1-606)
chain: MRVENVDNVSFALNGRADEWCMSVETRLDSLVREKSEVKAYVGGCPSVITDAGAYDALFDMRRRWSNNGGFPLRMLEESSSEVTSSSALGLPPAMVMSPESLASPEYRALELWSYDDGITYNTAQSLLGACNMQQQQLQPQQPHPAPPTLPTMPLPMPPTTPKSENESMSSGREELSPASSINGCSADADARRQKKGPAPRQQEELCLVCGDRASGYHYNALTCEGCKGFFRRSVTKNAVYICKFGHACEMDMYMRRKCQECRLKKCLAVGMRPECVIQEPSKNKDRQRQKKDKGILLPVSTTTVEDHMPPIMQCDPPPPEAARIHEVVPRYLSEKLMEQNRQKNIPPLSANQKSLIARLVWYQEGYEQPSDEDLKRVTQTWQSDEEDEESDLPFRQITEMTILTVQLIVEFAKGLPGFSKISQSDQITLLKASSSEVMMLRVARRYDAASDSVLFANNKAYTRDNYRQGGMAYVIEDLLHFCRCMFAMGMDNVHFALLTAIVIFSDRPGLEQPSLVEEIQRYYLNTLRIYIINQNSASSRCAVIYGRILSVLTELRTLGTQNSNMCISLKLKNRKLPPFLEEIWDVAEVATTHPTVLPPTNPVVL
For B1, the binding was “binds”.

Results are given in words; binding and its absence hold for the method and conditions named. Binding seen in cells or lysates may run through a third protein. Binding calls can cover weak binding; strength is not graded here. Tags and fused reporters may be left off the sequences shown.
